Test: peptide made by a vendor
Conditions: whole synthesis, MASS spectroscopy

With n-CGGKETAAAKFERQHMDS-c (S18 peptide) the final ms purity was “nearly 100%”.
